The values that follow come from PubChem BioAssay AID662 (National Center for Advancing Translational Sciences (NCATS), 2007).

Some of the results follow. Shown are side measurements of this screen, not its main read-out; they come without a call. The list favours compounds with an active or inconclusive main result. Potencies come from curve fits of mixed quality, noted in brackets.

The assay in a line: Cell signaling CRE-BLA (Fsk stim). Particulars: CHO CRE-bla reporter (cAMP response element driving beta-lactamase), forskolin EC10, beta-lactamase ratio; measured here: 460 nm blue channel. The method in brief: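 Modulation of forskolin signalling: compounds in titration series added with EC10 NKH 477 to CHO cells carrying a CRE-driven beta-lactamase reporter, 3 h, 37C. CCF4 FRET ratio (460/530 nm, ex 405 nm) gives %activity and AC50.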
`COc1cccc(Cn2c(=O)cnc3cnc(Nc4ccccc4)nc32)c1`: the AC50 was 15.8 µM [rising, partial curve].
In the case of `COc1ccc2c(c1)c1ncnc(N3CCN(Cc4ccc5c(c4)OCO5)CC3)c1n2C`, the AC50 is 5.01 µM [rising, single point].
In the case of `CN(C)c1nc(N)nc(-c2cccnc2)n1`, the AC50 was 12.6 µM [rising, single point].
Regarding `CC(C)OCCCNc1ncnc2c1[nH]c1ccccc12`, the AC50 is 12.6 µM [falling, single point].
For `Nc1nc(CSc2nc3ccccc3s2)nc(N2CCCCC2)n1` the value was 3.98 µM [rising, partial curve]; for `Cc1ccc(CNC(=O)CSc2nc(N3CCCCC3)nc(N3CCCCC3)n2)cc1`, 0.0794 µM [falling, full curve, poor fit].
Regarding `COc1ccc(-n2nc3c(c2NC(=O)C2CC2)CS(=O)C3)cc1` (stereo not drawn), the concentration at half-maximal activity (AC50) is 3.16 µM [rising, single point].
Consider `CN(CC(=O)NCCc1ccccc1)S(=O)(=O)c1cccs1`, for which the AC50 was 0.251 µM [falling, full curve, poor fit].
Regarding `COc1ccc(CNc2nc(-c3ccc4c(c3)OCO4)nc3ccccc23)c(OC)c1`, the half-maximal activity concentration (AC50) was 12.6 µM [rising, partial curve].
Take `COc1ccc(CNC(=O)C2CC(c3ccc(F)cc3)=NO2)cc1` (stereo not drawn): the AC50 was 0.794 µM [falling, full curve, poor fit].
With `CCNc1ncc2nc(-c3ccccc3)c(=O)n(Cc3cccc(OC)c3)c2n1`, the AC50 was 3.16 µM [rising, full curve].
For `CN1/C(=C/C(=O)c2nc(S(C)(=O)=O)ncc2Cl)C(C)(C)c2ccccc21` the value was 3.16 µM [falling, full curve].
For the compound `Nc1ccc(-c2nnc(-c3ccc(-c4ccccc4)cc3)o2)cc1`, the AC50 is 3.98 µM [rising, partial curve].
Regarding `Cc1cc(C(F)(F)F)c2c(=O)[nH]c(=O)n(Cc3ccccc3)c2n1`, the AC50 is 25.1 µM [rising, single point].
For `CCOC(=O)C1=C(C)NC(C)=C(C(=O)OCC)C1C(=O)OCC(=O)c1ccc2c(c1)OCCO2` the value was 3.98 µM [falling, single point]; for `COc1ccc(CN2CCCCC2C(=O)Nc2ccc(OC)c(OC)c2)cc1OC` (stereo not drawn), 15.8 µM [rising, partial curve]; for `C=CCn1c(SCc2cc(C(=O)OC)c(C)o2)nnc1-c1ccncc1`, 5.01 µM [rising, partial curve].
Regarding `CCc1ccc(NC(=O)c2cc(-c3ccc(OC)cc3)on2)cc1`, the AC50 is 0.126 µM [falling, single point].
Regarding `O=C(NCN1C(=O)C2C3C=CC(C3)C2C1=O)Nc1ccccn1` (stereo not drawn), the AC50 was 1.58 µM [rising, partial curve].
Turning to `O=C(N1CCN(c2ccccn2)CC1)N1c2ccccc2Sc2ccccc21`, the AC50 was 10 µM [rising, partial curve].
For `Clc1ccccc1OCCn1cnc2ccccc21` the value was 3.16 µM [rising, partial curve]; for `CCC(=O)NCCn1c(C)cc2ccccc21`, 10 µM [rising, partial curve]; for `COC(=O)C1=C(C)N(c2ccc(OC)c(OC)c2)C(=O)C1`, 15.8 µM [falling, single point].
Turning to `Cc1ccc2cc3cc(C(=O)N4CCCCC4C)oc3nc2c1` (stereo not drawn), the AC50 is 2.51 µM [rising, full curve].
As for `CCOC(=O)c1c(C)oc2cc(Br)c(OC(=O)N3CCOCC3)cc12`, the AC50 is 12.6 µM [rising, partial curve].
Under `Cc1onc(-c2ccccc2Cl)c1C(=O)OCn1nnc2ccccc2c1=O` stands 0.00398 µM [falling, full curve, poor fit].
As to `O=C(CSc1nnc(C2CC2)n1Cc1ccccc1)N1CCN(S(=O)(=O)c2ccccc2)CC1`, the AC50 was 0.0794 µM [falling, full curve].
As to `COC(=O)c1ccc(CSc2nnnn2-c2ccc(C)cc2C)o1`, the AC50 is 0.794 µM [rising, full curve].
As for `CC(C)n1c(SCC(=O)Nc2ccc3c(c2)OCO3)nc2c1c(=O)n(C)c(=O)n2C`, the AC50 was 7.94 µM [rising, partial curve].
In the case of `Cc1nc2sc(C(c3cccs3)N3CCC(C(N)=O)CC3)c(O)n2n1` (stereo not drawn), the AC50 is 3.98 µM [rising, single point].
Under `CCOc1ccc(-n2cc(C(=O)N3CCC(C)CC3)c3cc(OC)c(OC)cc3c2=O)cc1` stands 15.8 µM [rising, partial curve]; under `CCCC(=O)Nc1cc(-c2nn(C)c(=O)c3ccccc23)ccc1N1CCCCC1`, 2.51 µM [rising, full curve].
For `CN(C)c1ncc2nc(-c3ccc(F)cc3)c(=O)n(-c3ccccc3)c2n1`, the AC50 was 3.98 µM [rising, partial curve].
For `COc1ccc2c(=O)c3c(=O)n(Cc4ccco4)c(-c4ccccc4)nc3oc2c1` the value was 5.01 µM [rising, partial curve]; for `CCOc1ccc(NC(=O)CN(C)CC(=O)Nc2ccccc2C#N)cc1OCC`, 5.01 µM [falling, single point]; for `c1ccc(-c2cccc(N3CCC4(CCNCC4)CC3)c2)cc1`, 25.1 µM [rising, single point].
Turning to `Cc1ccc(-c2nnn(CC(=O)NCC3COCCO3)n2)o1` (stereo not drawn), the AC50 is 0.126 µM [falling, partial curve, poor fit].
For the compound `Cc1c(Nc2cc(=O)oc3ccccc23)c(=O)n(-c2ccccc2)n1C`, the AC50 is 0.00316 µM [falling, partial curve, poor fit].
Regarding `O=C(CCc1nc(-c2ccccc2F)no1)NCCN1CCOCC1`, the AC50 was 25.1 µM [falling, single point].
For the compound `O=C(Nc1cccc(-c2cn3cccnc3n2)c1)c1ccc(Br)o1`, the AC50 is 1.26 µM [falling, partial curve].
With `O=C(NC1CCCCCC1)C1CCCN(S(=O)(=O)c2cccs2)C1` (stereo not drawn), the AC50 is 0.316 µM [falling, partial curve].
As for `O=C(Cc1ccccc1)Nc1ccc(-c2nnc(-c3ccco3)o2)cc1`, the AC50 was 1.58 µM [falling, partial curve, poor fit].
As for `Cc1cn2nc(N)c3ccccc3c2n1`, the AC50 was 25.1 µM [rising, single point].
Under `Cc1ccc(Cn2c(SCCN3CCOCC3)nc3c2c(=O)n(C)c(=O)n3C)cc1` stands 12.6 µM [rising, single point].
Under `Cc1nc(SCn2nnc3ccccc3c2=O)nc(C)c1C` stands 5.01 µM [rising, partial curve].
Consider `COc1ccc(-n2c(=O)cc(N3CCN(c4ccccc4)CC3)[nH]c2=O)cc1`, for which the AC50 was 5.01 µM [falling, partial curve].
As for `O=C(COC(=O)Cn1cnc2ccccc21)NCCC1=CCCCC1`, the AC50 was 5.01 µM [falling, single point].
Regarding `COc1ccc(N(CC(=O)Nc2cc(OC)ccc2OC)S(C)(=O)=O)cc1`, the AC50 was 0.00316 µM [falling, full curve, poor fit].
On to `CCc1nnc(SCC(=O)NC2CCCCC2)nc1CC`, for which the AC50 was 0.00501 µM [falling, full curve, poor fit].
Take `OC1CCN(c2c3c(nc4cc(-c5cccc(F)c5)nn24)CCCC3)CC1`: the AC50 is 1.58 µM [rising, full curve].
For `CCOC(=O)c1cnc2ccc(Br)cc2c1NCCO` the value was 0.00316 µM [falling, full curve, poor fit].
Under `COc1ccccc1C(=O)OCC(=O)Nc1ccc(OC(F)F)cc1` stands 5.01 µM [falling, single point].
Regarding `CCOc1ccc(-n2nc(C(=O)NCCOC)c3ccccc3c2=O)cc1`, the AC50 was 0.501 µM [rising, full curve].
Take `COc1cc(C2NC(=O)NC(C)=C2C(=O)OC2CCCCC2)cc(Br)c1O` (stereo not drawn): the AC50 is 15.8 µM [rising, single point].
For `Cc1cc(C)n(-c2ccc(Cl)c(C(=O)O)n2)n1` the value was 5.01 µM [falling, single point]; for `CCN(CCCNC(=O)CN(C)S(=O)(=O)c1cccc2nsnc12)c1cccc(C)c1`, 7.94 µM [rising, partial curve].
As to `CC(C)CCNC(=O)NC(=O)CN1C(=O)NC2(CCCCC2)C1=O`, the AC50 is 3.98 µM [falling, single point].
As to `O=C(COc1cccc(Oc2ccccc2)c1)Nc1ncccn1`, the AC50 is 5.01 µM [falling, single point].
Consider `COc1cc(NC(=O)c2ccccc2)cc(OC)c1`, for which the concentration at half-maximal activity (AC50) is 12.6 µM [falling, partial curve].
Regarding `Cc1cc(Cl)ccc1OCC(=O)Nn1c(C)ccc1C`, the AC50 is 12.6 µM [falling, partial curve].
Take `COc1ccc(C(=O)NCc2ccccc2OC)c(OC)c1`: the AC50 was 1.26 µM [rising, partial curve].
For `Cc1csc(NC(=O)c2cccc(Cn3nc(C)c(Br)c3C)c2)n1`, the half-maximal activity concentration (AC50) is 10 µM [rising, partial curve].
`CCC(C)Sc1nc2c(c(=O)[nH]c(=O)n2C)n1Cc1ccccc1Cl` (stereo not drawn): the AC50 is 3.98 µM [rising, partial curve].
Under `COc1ccc2[nH]c(=O)c(CN(CC3CCCO3)C(=O)Nc3ccccc3)cc2c1` (stereo not drawn) stands 20 µM [rising, single point]; under `CC1=C(/C=C/C(C)=C/C=C/C(C)=C\C=O)C(C)(C)CCC1`, 15.8 µM [falling, partial curve]; under `CCOC(=O)C1CCCN(C(=O)CN2C(=O)c3ccccc3C2=O)C1` (stereo not drawn), 1 µM [falling, partial curve].
In the case of `CCc1nnc(NC(=O)CSc2nnc(-c3ccoc3C)n2-c2cccc(C)c2)s1`, the AC50 is 12.6 µM [rising, partial curve].
As for `Nc1c(C(=O)c2ccccc2)oc2ccc(Br)cc12`, the AC50 is 25.1 µM [rising, single point].
